This assay addresses T1, full-length Pirh2 (Pirh2-GST) (human) (UniProt Q96PM5).
T1 sequence: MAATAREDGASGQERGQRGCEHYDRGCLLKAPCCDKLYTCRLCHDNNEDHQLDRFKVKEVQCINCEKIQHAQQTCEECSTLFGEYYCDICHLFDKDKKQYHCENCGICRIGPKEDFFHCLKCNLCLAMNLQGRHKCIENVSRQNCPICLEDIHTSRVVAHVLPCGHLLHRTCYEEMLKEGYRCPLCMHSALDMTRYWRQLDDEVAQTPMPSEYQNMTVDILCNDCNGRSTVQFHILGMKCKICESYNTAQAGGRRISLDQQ
Put plainly: affinity purification with mass spectrometry; Pirh2-GST (GST as control) immobilised on glutathione-sepharose beads, incubated with HEK293T cell extract at 4 °C for 3 h, washed with PBS; retained proteins identified by LC-MS/MS; only the target purified.

By UniProt entry, the sequences of proteins in these tests, tags left out.
UniProt Q9UPY3: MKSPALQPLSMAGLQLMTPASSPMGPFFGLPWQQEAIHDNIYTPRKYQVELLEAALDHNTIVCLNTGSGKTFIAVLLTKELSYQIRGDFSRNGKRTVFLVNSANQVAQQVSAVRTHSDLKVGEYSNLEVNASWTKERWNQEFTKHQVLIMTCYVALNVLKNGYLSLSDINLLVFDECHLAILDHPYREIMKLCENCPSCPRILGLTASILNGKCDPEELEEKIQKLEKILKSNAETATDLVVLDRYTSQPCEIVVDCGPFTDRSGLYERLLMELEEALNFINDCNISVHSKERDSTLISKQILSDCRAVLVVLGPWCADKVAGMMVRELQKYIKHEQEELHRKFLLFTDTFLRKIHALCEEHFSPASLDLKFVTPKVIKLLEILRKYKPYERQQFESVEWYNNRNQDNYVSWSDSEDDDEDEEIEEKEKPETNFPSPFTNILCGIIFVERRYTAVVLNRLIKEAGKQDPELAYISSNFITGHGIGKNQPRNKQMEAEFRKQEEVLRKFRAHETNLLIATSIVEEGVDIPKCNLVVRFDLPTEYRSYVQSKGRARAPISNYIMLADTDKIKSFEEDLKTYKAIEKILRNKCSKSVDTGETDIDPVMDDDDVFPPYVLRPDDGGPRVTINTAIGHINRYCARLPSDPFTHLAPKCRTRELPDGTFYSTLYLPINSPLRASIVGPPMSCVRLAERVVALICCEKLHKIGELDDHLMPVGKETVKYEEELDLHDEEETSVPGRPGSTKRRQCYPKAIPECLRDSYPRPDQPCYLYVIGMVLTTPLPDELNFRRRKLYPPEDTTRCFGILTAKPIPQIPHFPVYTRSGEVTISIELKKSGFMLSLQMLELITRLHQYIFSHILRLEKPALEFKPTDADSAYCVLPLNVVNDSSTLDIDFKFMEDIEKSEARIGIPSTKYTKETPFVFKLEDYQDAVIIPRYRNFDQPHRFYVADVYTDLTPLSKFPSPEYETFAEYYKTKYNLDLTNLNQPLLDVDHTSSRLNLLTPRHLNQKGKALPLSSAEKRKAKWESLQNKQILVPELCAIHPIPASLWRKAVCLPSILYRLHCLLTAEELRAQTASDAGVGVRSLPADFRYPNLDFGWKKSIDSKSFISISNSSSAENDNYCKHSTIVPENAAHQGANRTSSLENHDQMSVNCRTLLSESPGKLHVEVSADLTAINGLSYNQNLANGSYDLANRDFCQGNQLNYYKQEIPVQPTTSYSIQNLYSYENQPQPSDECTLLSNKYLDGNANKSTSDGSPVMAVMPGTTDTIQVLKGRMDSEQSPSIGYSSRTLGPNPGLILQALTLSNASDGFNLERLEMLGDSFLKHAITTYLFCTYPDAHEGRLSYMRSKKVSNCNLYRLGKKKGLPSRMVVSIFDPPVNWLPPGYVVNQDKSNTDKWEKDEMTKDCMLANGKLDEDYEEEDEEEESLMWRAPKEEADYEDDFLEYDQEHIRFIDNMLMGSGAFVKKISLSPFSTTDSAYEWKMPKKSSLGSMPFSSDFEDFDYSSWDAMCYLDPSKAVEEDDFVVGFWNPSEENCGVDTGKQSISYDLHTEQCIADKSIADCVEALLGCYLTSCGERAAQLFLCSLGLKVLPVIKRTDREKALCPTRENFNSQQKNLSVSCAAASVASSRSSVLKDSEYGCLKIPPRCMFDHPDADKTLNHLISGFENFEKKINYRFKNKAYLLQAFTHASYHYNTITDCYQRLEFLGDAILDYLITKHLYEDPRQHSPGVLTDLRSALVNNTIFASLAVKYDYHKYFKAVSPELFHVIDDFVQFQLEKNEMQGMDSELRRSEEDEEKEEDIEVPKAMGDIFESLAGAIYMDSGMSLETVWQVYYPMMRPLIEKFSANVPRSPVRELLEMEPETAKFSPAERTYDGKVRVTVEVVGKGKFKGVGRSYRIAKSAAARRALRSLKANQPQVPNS
UniProt Q15717: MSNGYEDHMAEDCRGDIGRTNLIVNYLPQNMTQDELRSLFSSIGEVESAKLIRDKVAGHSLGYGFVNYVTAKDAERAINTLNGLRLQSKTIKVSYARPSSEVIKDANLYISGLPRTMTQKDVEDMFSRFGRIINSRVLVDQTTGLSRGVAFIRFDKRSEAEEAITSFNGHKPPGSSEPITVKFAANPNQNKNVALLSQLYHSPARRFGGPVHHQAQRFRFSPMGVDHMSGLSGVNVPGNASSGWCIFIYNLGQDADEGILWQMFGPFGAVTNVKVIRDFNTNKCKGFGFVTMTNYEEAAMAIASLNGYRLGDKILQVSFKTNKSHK
UniProt P12956: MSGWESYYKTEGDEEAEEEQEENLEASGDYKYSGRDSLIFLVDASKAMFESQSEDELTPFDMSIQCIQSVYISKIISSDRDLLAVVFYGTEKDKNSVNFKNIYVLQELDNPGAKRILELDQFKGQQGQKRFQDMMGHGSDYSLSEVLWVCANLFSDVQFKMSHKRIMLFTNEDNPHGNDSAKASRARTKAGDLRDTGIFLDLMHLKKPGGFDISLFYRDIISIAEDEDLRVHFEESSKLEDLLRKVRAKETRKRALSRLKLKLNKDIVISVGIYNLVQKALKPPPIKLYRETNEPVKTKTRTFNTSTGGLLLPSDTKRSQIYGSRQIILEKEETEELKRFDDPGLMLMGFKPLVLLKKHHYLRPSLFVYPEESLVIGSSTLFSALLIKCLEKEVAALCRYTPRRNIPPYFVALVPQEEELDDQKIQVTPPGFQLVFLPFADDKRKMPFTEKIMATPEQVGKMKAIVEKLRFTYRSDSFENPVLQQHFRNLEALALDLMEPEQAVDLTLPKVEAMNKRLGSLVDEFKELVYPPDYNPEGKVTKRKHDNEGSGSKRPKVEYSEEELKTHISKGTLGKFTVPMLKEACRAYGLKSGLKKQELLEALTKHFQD
UniProt P09874: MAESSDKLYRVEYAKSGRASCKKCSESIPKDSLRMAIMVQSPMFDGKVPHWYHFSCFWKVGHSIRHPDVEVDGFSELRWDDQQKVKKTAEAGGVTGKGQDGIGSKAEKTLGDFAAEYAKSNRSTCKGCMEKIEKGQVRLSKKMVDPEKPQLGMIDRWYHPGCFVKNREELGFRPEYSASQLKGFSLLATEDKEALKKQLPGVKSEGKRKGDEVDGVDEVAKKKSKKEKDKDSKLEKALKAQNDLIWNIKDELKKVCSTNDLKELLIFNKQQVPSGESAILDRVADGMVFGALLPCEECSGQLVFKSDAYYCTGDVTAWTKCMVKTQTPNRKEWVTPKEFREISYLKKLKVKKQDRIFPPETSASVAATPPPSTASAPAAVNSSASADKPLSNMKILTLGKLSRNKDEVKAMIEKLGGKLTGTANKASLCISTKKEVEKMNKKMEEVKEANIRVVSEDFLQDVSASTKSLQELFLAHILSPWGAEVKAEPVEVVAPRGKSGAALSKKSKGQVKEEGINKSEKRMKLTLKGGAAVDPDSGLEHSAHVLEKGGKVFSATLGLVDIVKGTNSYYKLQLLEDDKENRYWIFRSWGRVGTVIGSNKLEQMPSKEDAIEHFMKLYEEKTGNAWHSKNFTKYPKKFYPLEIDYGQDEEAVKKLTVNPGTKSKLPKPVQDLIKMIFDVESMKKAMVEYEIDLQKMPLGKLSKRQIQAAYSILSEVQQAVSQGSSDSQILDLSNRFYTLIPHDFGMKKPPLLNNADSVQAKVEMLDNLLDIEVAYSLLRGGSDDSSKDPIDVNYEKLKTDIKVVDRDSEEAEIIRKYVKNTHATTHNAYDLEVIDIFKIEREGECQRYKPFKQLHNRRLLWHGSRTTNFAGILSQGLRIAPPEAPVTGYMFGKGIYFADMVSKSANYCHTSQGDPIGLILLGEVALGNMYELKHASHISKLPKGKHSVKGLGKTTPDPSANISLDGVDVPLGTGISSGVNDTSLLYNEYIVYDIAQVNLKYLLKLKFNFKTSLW

For four substances, binding results are on record in PMC8179929.

Results are given in words; binding and its absence hold for the method and conditions named. In cells and extracts the contact can be indirect. A yes stands for co-enrichment or nearness to the bait. Other partners may have been found. Tags and fused reporters may be left off the sequences shown.

On to “Dicer, endogenous in HEK293T (from UniProt Q9UPY3 1-1922)”, for which the binding entry is listed as “binds”.

In the case of “HuR (ELAVL1), endogenous in HEK293T (from UniProt Q15717 1-326)”, the binding result is listed as “binds”.

Take “Ku70, endogenous in HEK293T (from UniProt P12956 1-609)”: the binding result is reported as “binds”.

For “PARP1, endogenous in HEK293T (from UniProt P09874 1-1014)”, the binding result is “binds”.
